± gives the uncertainty stated by the source. Many entries were measured with a wide error.
Assay: self-splicing fitness, log relative to wild type (ln ratio); higher = more splicing; Tetrahymena group I intron in knt gene, E. coli kanamycin selection, DiMSum; sequences stand for … in CUCUCU…GGAGGGAAAAGUUAUCAGGCAUGCACCUGGUAGCUAGUCUUUAAACCAAUAGAUUGCAUCGGUUUAAAAGGCAAGACCGUCAAAUUGCGGGAAAGGGGUCAACAGCCGUUCAGUACCAAGUCUCAGGGGAAACUUUGAGAUGGCCUUGCAAAGGGUAUGGUAAUAAGCUGACGGACAUGGUCCUAACCACGCAGCCAAGUCCUAAGUCAACAGAUCUUCUGUUGAUAUGGAUGCAGUUCACAGACUAAAUGUCGGUCGGGGAAGAUGUAUUCUUCUCAUAAGAUAUAGUCGGACCUCUCCUUAAUGGGAGCUAGCGGAUGAAGUGAUGCAACACUGGAGCCGCUGGGAACUAAUUUGUAUGCGAAAGUAUAUUGAUUAGUUUUGGAGUACUCGUGGUCG
In short: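 Colonies from six replicate transformations of E. coli BL21(DE3) were pooled and amplicon-sequenced on an Illumina HiSeq 2500. The library placed an intron with all eight P1ex-region nucleotides randomised inside the knt kanamycin-resistance gene on pET-22b(+), and cells grew overnight at 37°C or 30°C on LB agar with or without 25 μg/mL kanamycin (plus 100 μg/mL carbenicillin, 50 μM IPTG, 0.2% rhamnose). Fitness is the DiMSum error-weighted combination of wild-type-normalised replicate fold changes, kanamycin versus none.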

Sequence	self-splicing fitness (ln) (30 °C)	self-splicing fitness (ln) (37 °C)
GUGGAGCAAUAUUACGUGCC	-2.72 ± 0.54	–
GGGCAGCAAUAUUACGGCUC	-1.96 ± 0.52	-0.254 ± 0.53
GCGGAGCAAUAUUACGAUAA	-3.16 ± 0.76	–
CCGAAGCAAUAUUACGCCAG	-1.32 ± 0.11	-0.531 ± 0.13
GCCCAGCAAUAUUACGUAUU	-2.02 ± 0.066	-0.786 ± 0.074
GCAGAGCAAUAUUACGUCCC	-1.86 ± 0.65	–
CUAAAGCAAUAUUACGCACC	-2.19 ± 0.58	-2.39 ± 1.1
UAUUAGCAAUAUUACGUGUC	–	-2.96 ± 0.53
UGGCAGCAAUAUUACGCAUG	-1.78 ± 0.63	0.321 ± 1.2
UUGUAGCAAUAUUACGGCGC	-4.14 ± 0.51	–
CGCUAGCAAUAUUACGGAAC	-3.87 ± 0.52	-3.81 ± 0.59
GGACAGCAAUAUUACGAUCC	-4.14 ± 0.6	-1.21 ± 0.56
ACUAAGCAAUAUUACGGGAG	-2.5 ± 0.11	-1.88 ± 0.14
CGGGAGCAAUAUUACGACUC	-2.66 ± 1.1	–
GGGGAGCAAUAUUACGGGAG	-3.06 ± 1.1	–
AAGCAGCAAUAUUACGAAAU	-2.65 ± 0.11	-1.33 ± 0.12
CGGUAGCAAUAUUACGCGUG	-2.11 ± 0.15	-1.82 ± 0.14
UGAUAGCAAUAUUACGUCUC	-2.23 ± 0.57	-1.73 ± 0.51
GGUAAGCAAUAUUACGGUUG	–	-1.68 ± 0.6
CUCGAGCAAUAUUACGCCCA	-3.56 ± 0.6	-0.943 ± 0.53
UUGCAGCAAUAUUACGAACC	–	-1.88 ± 1.2
UGCGAGCAAUAUUACGCAGU	-4.83 ± 0.58	–
UCGUAGCAAUAUUACGGAAC	-3.73 ± 0.52	-1.22 ± 0.51
AGCGAGCAAUAUUACGAUGA	–	-2.94 ± 0.53

Sequence	self-splicing fitness (ln) (30 °C)	self-splicing fitness (ln) (37 °C)
CGCCAGCAAUAUUACGCCCC	-1.5 ± 0.62	-1.11 ± 0.75
AAGGAGCAAUAUUACGAAUU	-3.3 ± 0.53	-2.1 ± 0.65
UAAGAGCAAUAUUACGCUCU	-2.21 ± 1.1	-2.5 ± 0.55
UUAGAGCAAUAUUACGGUUC	–	-1.19 ± 0.64
UUCGAGCAAUAUUACGGUCG	-4.23 ± 0.51	–
GUGGAGCAAUAUUACGCUGA	-2.18 ± 0.84	–
GGCGAGCAAUAUUACGAGCC	-0.828 ± 1	–
CGUUAGCAAUAUUACGUCUC	-4.66 ± 1	–
CUAUAGCAAUAUUACGGAAU	–	-2.62 ± 0.76
UCUAAGCAAUAUUACGCCGA	-1.12 ± 0.19	-0.156 ± 0.2
UGUCAGCAAUAUUACGGCGC	-2.76 ± 0.21	-1.65 ± 0.19
CAGAAGCAAUAUUACGAAGC	–	-2.15 ± 0.56
CUGGAGCAAUAUUACGACAC	-3.97 ± 1	-2.3 ± 1.1
UCAAAGCAAUAUUACGUUGC	-3.48 ± 0.19	-3.23 ± 0.26
AAUAAGCAAUAUUACGUAGC	-5.06 ± 0.51	–
GUUAAGCAAUAUUACGCAAU	-3.09 ± 0.44	-2.29 ± 1.1
CCUUAGCAAUAUUACGGGAU	-3.68 ± 0.29	-2.68 ± 0.27
UAUCAGCAAUAUUACGCCUC	-0.828 ± 1	–
GCGGAGCAAUAUUACGUCAU	-3.31 ± 0.61	-3.27 ± 0.73
AAAUAGCAAUAUUACGCAGA	–	-3.04 ± 0.53
CGGAAGCAAUAUUACGUCCG	–	-2.3 ± 0.78
GCUUAGCAAUAUUACGCCCC	-1.3 ± 0.83	-0.644 ± 0.65
GUCAAGCAAUAUUACGGGGA	-4.26 ± 1	–
CUGAAGCAAUAUUACGCGCU	-3.35 ± 0.29	-2.76 ± 0.74

Quoted from the results shown for reference:
Sequence	self-splicing fitness (ln) (30 °C)	self-splicing fitness (ln) (37 °C)
CGGUAGCAAUAUUACGCGUG	-2.11 ± 0.15	-1.82 ± 0.14
UGAUAGCAAUAUUACGUCUC	-2.23 ± 0.57	-1.73 ± 0.51
GGUAAGCAAUAUUACGGUUG	–	-1.68 ± 0.6
CUCGAGCAAUAUUACGCCCA	-3.56 ± 0.6	-0.943 ± 0.53
UUGCAGCAAUAUUACGAACC	–	-1.88 ± 1.2
UGCGAGCAAUAUUACGCAGU	-4.83 ± 0.58	–
UCGUAGCAAUAUUACGGAAC	-3.73 ± 0.52	-1.22 ± 0.51
AGCGAGCAAUAUUACGAUGA	–	-2.94 ± 0.53
CGCCAGCAAUAUUACGCCCC	-1.5 ± 0.62	-1.11 ± 0.75
AAGGAGCAAUAUUACGAAUU	-3.3 ± 0.53	-2.1 ± 0.65
UAAGAGCAAUAUUACGCUCU	-2.21 ± 1.1	-2.5 ± 0.55
UUAGAGCAAUAUUACGGUUC	–	-1.19 ± 0.64
UUCGAGCAAUAUUACGGUCG	-4.23 ± 0.51	–
GUGGAGCAAUAUUACGCUGA	-2.18 ± 0.84	–
GGCGAGCAAUAUUACGAGCC	-0.828 ± 1	–
CGUUAGCAAUAUUACGUCUC	-4.66 ± 1	–
CUAUAGCAAUAUUACGGAAU	–	-2.62 ± 0.76
UCUAAGCAAUAUUACGCCGA	-1.12 ± 0.19	-0.156 ± 0.2
UGUCAGCAAUAUUACGGCGC	-2.76 ± 0.21	-1.65 ± 0.19
CAGAAGCAAUAUUACGAAGC	–	-2.15 ± 0.56
CUGGAGCAAUAUUACGACAC	-3.97 ± 1	-2.3 ± 1.1
UCAAAGCAAUAUUACGUUGC	-3.48 ± 0.19	-3.23 ± 0.26
AAUAAGCAAUAUUACGUAGC	-5.06 ± 0.51	–
GUUAAGCAAUAUUACGCAAU	-3.09 ± 0.44	-2.29 ± 1.1
CCUUAGCAAUAUUACGGGAU	-3.68 ± 0.29	-2.68 ± 0.27
UAUCAGCAAUAUUACGCCUC	-0.828 ± 1	–
GCGGAGCAAUAUUACGUCAU	-3.31 ± 0.61	-3.27 ± 0.73
AAAUAGCAAUAUUACGCAGA	–	-3.04 ± 0.53
CGGAAGCAAUAUUACGUCCG	–	-2.3 ± 0.78
GCUUAGCAAUAUUACGCCCC	-1.3 ± 0.83	-0.644 ± 0.65
GUCAAGCAAUAUUACGGGGA	-4.26 ± 1	–

Additional results.

Sequence	self-splicing fitness (ln) (30 °C)	self-splicing fitness (ln) (37 °C)
AACGAGCAAUAUUACGACAG	-3.9 ± 0.52	–
GUUUAGCAAUAUUACGAGAA	-1.94 ± 0.52	-2.36 ± 0.5
UAUGAGCAAUAUUACGAAUC	-4.85 ± 0.71	–
CUAUAGCAAUAUUACGUCUC	–	-0.663 ± 0.68
ACAGAGCAAUAUUACGUGAA	–	-3.62 ± 0.52
AGCCAGCAAUAUUACGAGCC	-4.27 ± 0.6	–
GCGAAGCAAUAUUACGCCUU	-4.18 ± 0.52	–
UGUGAGCAAUAUUACGUCGA	-2.59 ± 0.64	0.0981 ± 1.2
CAAAAGCAAUAUUACGGCAG	0.126 ± 0.077	-0.164 ± 0.089
AAGUAGCAAUAUUACGCUUC	-4.67 ± 0.59	–
UUUAAGCAAUAUUACGGUAC	–	-2.5 ± 0.61
ACUUAGCAAUAUUACGCCCC	–	0.218 ± 0.56
GCGAAGCAAUAUUACGGUCG	-3.65 ± 0.32	-2.77 ± 0.4
CUAUAGCAAUAUUACGUUCC	-3.81 ± 1	-2.76 ± 0.53
CUGUAGCAAUAUUACGAGAG	-3.1 ± 0.54	-2.48 ± 0.77
UGUUAGCAAUAUUACGGAGC	-3.14 ± 0.61	–
UGGUAGCAAUAUUACGGAAU	-4.57 ± 0.73	–
GAAUAGCAAUAUUACGAAGU	-3.48 ± 1.1	–
CCCCAGCAAUAUUACGUCCG	-4.14 ± 0.51	–
GGAAAGCAAUAUUACGGCAU	-1.03 ± 0.13	-0.672 ± 0.15
GCGGAGCAAUAUUACGGUUC	-2.31 ± 0.68	–
CCAAAGCAAUAUUACGACUU	-3.77 ± 0.16	-3.01 ± 0.2
CGUGAGCAAUAUUACGAAUU	-4.52 ± 0.51	–
CAUUAGCAAUAUUACGGGAA	-4.2 ± 0.52	–

Sequence	self-splicing fitness (ln) (30 °C)	self-splicing fitness (ln) (37 °C)
UAUUAGCAAUAUUACGCCAU	-4.14 ± 0.6	–
CAGGAGCAAUAUUACGAGUC	-3.87 ± 0.52	-2.23 ± 0.56
AGAGAGCAAUAUUACGCAAC	-3.73 ± 0.53	–
CCGGAGCAAUAUUACGUUCU	–	-2.53 ± 0.54
CAUGAGCAAUAUUACGCGCC	-3.99 ± 0.74	-2.94 ± 0.53
AGAGAGCAAUAUUACGCGCG	-1.96 ± 0.82	–
AUGGAGCAAUAUUACGGUAA	-3.34 ± 0.75	–
CCUAAGCAAUAUUACGAUGC	-3.49 ± 0.17	-1.88 ± 0.16
UGUUAGCAAUAUUACGUGGC	–	-0.802 ± 0.68
CGGAAGCAAUAUUACGCUCC	-2.01 ± 0.69	-2.3 ± 0.77
UAGGAGCAAUAUUACGUCCC	-0.77 ± 0.71	-1.33 ± 1.2
AGUGAGCAAUAUUACGCAGG	-5.04 ± 1	–
UCGGAGCAAUAUUACGAGCU	–	-2.2 ± 0.56
AUCGAGCAAUAUUACGUGAU	-3.06 ± 0.76	–
CGCGAGCAAUAUUACGCCAC	–	-1.82 ± 0.53
GCAGAGCAAUAUUACGAACG	-2.03 ± 0.66	–
CUGGAGCAAUAUUACGCCUU	-4.16 ± 1	–
UUCUAGCAAUAUUACGGAGG	–	-3.51 ± 0.61
CCUAAGCAAUAUUACGAUCC	–	-2.37 ± 0.54
GGGAAGCAAUAUUACGUGUA	-1.96 ± 0.14	-0.669 ± 0.11
GCGUAGCAAUAUUACGUCAC	-2.81 ± 1.1	–
CUUUAGCAAUAUUACGAUAC	-3.4 ± 0.39	-2.42 ± 0.45
AGUGAGCAAUAUUACGUGAU	-2.87 ± 0.26	-2.74 ± 0.34
CGUUAGCAAUAUUACGCUUC	-3.17 ± 1	–

Sequence	self-splicing fitness (ln) (30 °C)	self-splicing fitness (ln) (37 °C)
UCCAAGCAAUAUUACGCCAG	-3.06 ± 0.75	–
UGGGAGCAAUAUUACGGUGC	-3.7 ± 1.1	–
GAUUAGCAAUAUUACGAUCC	-4.58 ± 0.72	-2.6 ± 0.77
UAUGAGCAAUAUUACGGAGC	–	-1.19 ± 0.73
UGGGAGCAAUAUUACGACAG	-2.61 ± 0.53	-0.778 ± 1.4
ACAUAGCAAUAUUACGUCUG	-1.24 ± 0.071	-0.845 ± 0.09
CUCGAGCAAUAUUACGCUUU	-4.13 ± 0.46	-2.31 ± 0.31
GAUGAGCAAUAUUACGAGGG	-4.5 ± 0.59	–
AGGCAGCAAUAUUACGUCAA	-1.25 ± 0.098	-0.465 ± 0.095
UAUUAGCAAUAUUACGAGUC	–	-2.57 ± 1.1
AGGCAGCAAUAUUACGCCCU	–	-1.83 ± 0.82
UUUUAGCAAUAUUACGCAGC	-2.45 ± 0.78	-3.53 ± 1
UUCUAGCAAUAUUACGUAGC	-5.78 ± 1	–
GUGGAGCAAUAUUACGACGG	-2.15 ± 0.56	-2.19 ± 0.78
GUUCAGCAAUAUUACGACUC	0.0553 ± 0.47	0.9 ± 0.54
CCUUAGCAAUAUUACGCGAU	-5.23 ± 0.72	-3.16 ± 0.22
UUUGAGCAAUAUUACGGGGA	-3.43 ± 0.63	–
GCAGAGCAAUAUUACGAAAA	-1.96 ± 1.2	-0.681 ± 1
AACGAGCAAUAUUACGAUAU	-3.13 ± 0.21	-1.3 ± 0.17
UUUUAGCAAUAUUACGUAUA	–	-2.64 ± 0.53
UUAUAGCAAUAUUACGGAAU	–	-3.97 ± 0.72
